Values of other authors, collected in patent US6749867B2, “Delivery system for omeprazole and its salts” (priority 2000, dated 2004).
At least one structure is not confirmed: it was looked up by name or label, or the drawing left a doubt.

Protein sequences, listed by entry. Tags and fused reporters are not part of them.
UniProt P20648, whole entry: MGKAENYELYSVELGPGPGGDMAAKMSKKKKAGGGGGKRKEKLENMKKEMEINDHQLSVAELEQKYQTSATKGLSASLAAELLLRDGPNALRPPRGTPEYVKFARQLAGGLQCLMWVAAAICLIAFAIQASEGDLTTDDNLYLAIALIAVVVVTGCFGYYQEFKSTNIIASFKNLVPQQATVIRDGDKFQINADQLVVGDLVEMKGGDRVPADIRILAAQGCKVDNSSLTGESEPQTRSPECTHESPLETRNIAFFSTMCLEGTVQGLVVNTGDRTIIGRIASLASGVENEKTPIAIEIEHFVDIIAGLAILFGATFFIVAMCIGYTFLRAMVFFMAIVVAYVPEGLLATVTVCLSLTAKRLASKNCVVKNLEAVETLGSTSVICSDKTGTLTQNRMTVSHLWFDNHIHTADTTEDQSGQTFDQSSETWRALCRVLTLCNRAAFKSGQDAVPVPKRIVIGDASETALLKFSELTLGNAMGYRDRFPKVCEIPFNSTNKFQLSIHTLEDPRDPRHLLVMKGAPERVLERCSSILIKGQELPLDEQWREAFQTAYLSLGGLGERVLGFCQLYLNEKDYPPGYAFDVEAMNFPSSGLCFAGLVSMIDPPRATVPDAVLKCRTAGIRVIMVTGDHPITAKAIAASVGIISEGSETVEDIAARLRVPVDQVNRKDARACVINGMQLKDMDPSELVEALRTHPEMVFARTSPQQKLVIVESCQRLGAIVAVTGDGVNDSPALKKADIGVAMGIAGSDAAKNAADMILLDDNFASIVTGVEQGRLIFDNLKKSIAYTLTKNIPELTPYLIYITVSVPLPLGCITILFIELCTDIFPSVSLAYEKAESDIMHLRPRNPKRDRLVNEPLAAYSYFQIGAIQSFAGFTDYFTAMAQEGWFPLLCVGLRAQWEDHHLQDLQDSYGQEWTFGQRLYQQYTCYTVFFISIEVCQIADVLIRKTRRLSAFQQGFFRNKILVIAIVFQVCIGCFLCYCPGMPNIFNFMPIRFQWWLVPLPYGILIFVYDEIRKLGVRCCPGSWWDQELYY

Biological target: T1, H+/K+ ATPase (Homo sapiens, UniProt P20648)
T1 construct: from tissue
Conditions: single-dose

For `COc1ccc2[nH]c([S+]([O-])Cc3ncc(C)c(OC)c3C)nc2c1` (stereo not shown) [omeprazole, Omeprazole], which duration of action is on record?
The duration of action was “exceed 24 hours”.
